Test results published in paper PMC11329753, “Human mitochondrial carriers of the SLC25 family function as monomers exchanging substrates with a ping-pong kinetic mechanism” (The EMBO Journal, 2024).
Results are given in words; binding and its absence hold for the method and conditions named.

Columns and labels:
[1] = target: human mitochondrial oxoglutarate carrier (human) (UniProt Q02978); test: SEC; 150 μL of purified carrier on Superdex 200 Increase 10/300 in buffer B (20 mM HEPES pH 7.0, 50 mM NaCl, 0.1 mg/mL tetraoleoyl cardiolipin/0.1% (w/v) lauryl maltose neopentyl glycol); sized against ferritin, aldolase, conalbumin and ovalbumin; total weight corrected for bound lipid/detergent (≈135 kDa); both purified
[2] = target: human mitochondrial dicarboxylate carrier (human) (UniProt Q9UBX3); test: as above

B1: human mitochondrial oxoglutarate carrier (protein, UniProt Q02978)
chain: MGKPRTSPKSVKFLFGGLAGMGATVFVQPLDLVKNRMQLSGEGAKTREYKTSFHALTSILKAEGLRGIYTGLSAGLLRQATYTTTRLGIYTVLFERLTGADGTPPGFLLKAVIGMTAGATGAFVGTPAEVALIRMTADGRLPADQRRGYKNVFNALIRITREEGVLTLWRGCIPTMARAVVVNAAQLASYSQSKQFLLDSGYFSDNILCHFCASMISGLVTTAASMPVDIAKTRIQNMRMIDGKPEYKNGLDVLFKVVRYEGFFSLWKGFTPYYARLGPHTVLTFIFLEQMNKAYKRLFLSG
binding [1]: no binding (tested: 1.1 mg/mL (150 μL applied))

B2: human mitochondrial dicarboxylate carrier (protein, UniProt Q9UBX3 1-287)
chain: MGKPAAEARVSRWYFGGLASCGAACCTHPLDLLKVHLQTQQEVKLRMTGMALRVVRTDGILALYSGLSASLCRQMTYSLTRFAIYETVRDRVAKGSQGPLPFHEKVLLGSVSGLAGGFVGTPADLVNVRMQNDVKLPQGQRRNYAHALDGLYRVAREEGLRRLFSGATMASSRGALVTVGQLSCYDQAKQLVLSTGYLSDNIFTHFVASFIAGGCATFLCQPLDVLKTRLMNSKGEYQGVFHCAVETAKLGPLAFYKGLVPAGIRLIPHTVLTFVFLEQLRKNFGIKVPS
binding [2]: no binding (tested: 1.7 mg/mL (150 μL applied))
